In PubChem BioAssay AID1259415 (National Center for Advancing Translational Sciences (NCATS), 2018):
Values joined by “and” are separate entries in the source; they are usually repeats but may differ in a detail not shown here. Identical values can stand only once. In all, about 410,000 compounds went through this assay and about 18,000 (4.4%) were called active. Inconclusive results, whose numbers are uncertain, are shown with a selection of clear calls. Cut-off read from the data, not from the text of the source: active = activity change below about -60%; inconclusive = no clear call, values can overlap the other calls; inactive = above about -39%.

assay: qHTS Assay for inhibitors of the human cytomegalovirus (HCMV); settings: HFF cells, HCMV-luciferase reporter, 72 h; at 57.5 µM; stronger effect = lower value
Summary of the method: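 Inhibition of viral replication was scored as loss of reporter luminescence in HFFs infected with HCMV-luciferase (MOI 1 PFU/cell) for 72 h; compounds tested at 2 doses, normalized to buffer and Salinomycin controls.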
% is set by controls: 0 for no effect and ±100 for the full control effect.

Compound	activity change, negative = inhibition
COc1ccc(-n2cc(-c3ccc(C)cc3)[n+]3c2SCC3)cc1	active: -102%
Cc1ccc(NS(=O)(=O)c2ccc(C)c(NC(=S)NCCN3CCOCC3)c2)c(C)c1	inconclusive: -49.6%
CCN1/C(=C\c2ccc3cc(C)ccc3[n+]2CC)Sc2cc(C)c(C)cc21	active: -96.7%
CCn1cc(C(=O)N(C)Cc2ccc(OC(F)F)cc2)c(=O)c2ccc(C)nc21	inactive: -27.5%
CC1=NC(=O)C(N=Nc2ccccc2C(=O)O)N1c1ccccc1 (stereo not given)	inactive: 37.7%
COc1cc(OC)c(CN2CCC(CO)(CCOc3ccccc3)CC2)c(OC)c1	inconclusive: -44.4%
NC[C@H]1O[C@@H](n2ccc(N)nc2=O)[C@H](O)[C@@H]1O	active: -86.8%
CCOC(=O)C1CCCN(C(=O)c2ccc(F)c(Cl)c2)CC1 (stereo not given)	inconclusive: -54.8%
O=C(Oc1ccccc1)c1ccccc1OS(=O)(=O)c1ccccc1	inconclusive: -49.7%
NS(=O)(=O)c1cccc(NC(=O)COC(=O)CN2C(=O)c3ccccc3C2=O)c1	inconclusive: -51.1%
Cc1c(CCC(=O)N2CCC[C@H]2C(=O)O)c(=O)oc2c(C)c3oc4c(c3cc12)CCCC4	inactive: -34.2%
Cc1c(CCOC(=O)C23CC4CC(CC(C)(C4)C2)C3)sc[n+]1Cc1ccccc1	inactive: 17.3%
COc1ccc(-c2coc3c(C(=O)Nc4cc(OC)c(OC)c(OC)c4)cccc23)c(C)c1	active: -64.9%
CCOC(=O)C1CCN(C(=O)CN2C(=O)C(C(C)C)Oc3ccccc32)CC1 (stereo not given)	inconclusive: -56.5%
CC(C)C(=O)OCc1cc(=O)n2nc(C3CCCCC3)sc2n1	inactive: 23%
COc1cccc(NC(=S)N/N=C2/CCCCc3ccccc32)c1	inactive: 10.9%
CCCCn1c(CN(C)Cc2ccccc2)nc2c1c(=O)n(C)c(=O)n2C	inconclusive: -58.9%
O=C(COc1cccc(C(F)(F)F)c1)N1CCN(c2ccc(O)cc2)CC1	inconclusive: -47.4%
COc1ccc([N+](=O)[O-])cc1NC(=O)COC(=O)c1ccccc1C(=O)c1ccccc1	inconclusive: -57.2%
COc1ccc(O)c(-c2[nH]ncc2C(=O)c2ccccc2C)c1	inconclusive: -49.1%
COC(=O)C1=C(c2ccc(OC(F)(F)F)cc2)C[C@@H]2CC[C@H]1N2C(=O)N1CCCCC1	inconclusive: -41.9%
O=C(Nc1nc2c(s1)CCCC2)c1ccc(Br)s1	inconclusive: -55.9%
COc1ccc(CSc2nncn2C)cc1F	inconclusive: -55.1%
CCN(CC)C(=O)NC(c1ccc(C)c(F)c1)C(Cl)(Cl)Cl (stereo not given)	inconclusive: -46.7%
CC(=O)Nc1cccc(NC(C)=C(C#N)C#N)c1	inconclusive: -41%
CCCC(=O)N1CCN(c2ccc(NC(=S)NC(=O)c3cccc(C)c3)cc2)CC1	inconclusive: -53.7%
O=C(COC(=O)c1cnccn1)c1ccc(C2CCCCC2)cc1	inactive: -10.1%
Cc1cc(/C=N/NC(N)=S)c(C)n1-c1ccc(Cl)c(Cl)c1	inconclusive: -58.6%

Compound	activity change, negative = inhibition
Clc1cccc(Cl)c1CON/C=N/c1ncnc2sccc12	inconclusive: -50.1%
N#Cc1ccc(OCC(O)CS(=O)(=O)c2ccc(F)cc2)cc1 (stereo not given)	inconclusive: -43.1%
COC(=O)C1=COC(C)C2CN3CCc4c([nH]c5cc(OC)c(OC)cc45)C3CC12 (stereo not given)	inactive: -2.95%
CCN1C(=O)C2C(c3cccc(F)c3)NC(C)(C(=O)OC)C2C1=O (stereo not given)	inconclusive: -49.8%
O=C(C1CCC(CNS(=O)(=O)c2cccs2)CC1)N1CCN(c2ccc(F)cc2)CC1 (stereo not given)	inconclusive: -58.5%
COc1ccc(NS(=O)(=O)c2cc(NC(=O)c3cncc(Br)c3)ccc2OC)cc1	inconclusive: -44.9%
Oc1ccc(C(c2nnnn2C2CCCCC2)N2CCOCC2)cc1 (stereo not given)	inconclusive: -43.8%
CC(=O)c1ccc(-c2cnc3c(NC=O)cc(-c4ccc(C(=O)NC5CC5)cc4)cn23)cc1	inconclusive: -50.3%
COc1ccc(C(=O)NC(C)C2CC3CCC2C3)c(OC)c1 (stereo not given)	inconclusive: -44.3%
Cc1cccc(NC(=O)CSc2cc(C)c3ccccc3n2)c1	active: -74%
Nc1ccc(S(=O)(=O)N2CCCc3ccccc32)cc1	inconclusive: -59.8%
C=CCn1c(SCC(=O)Nc2cc(C)on2)nc2sc3c(c2c1=O)CCCC3	inconclusive: -40.3%
O=C(NNc1c(Cl)cc(Cl)cc1Cl)C1CCC1	inactive: -29.5%
Cc1ccc(N2CC(C(=O)N3CCC4(CC3)CC(=O)c3ccccc3O4)CC2=O)cc1C (stereo not given)	inconclusive: -56.7%
O=C(O)c1ccc(NC(=O)N2C[C@H]3C[C@@H](C2)c2cccc(=O)n2C3)cc1	inactive: -9.54%
CCSC(=Nc1ccccc1)Nc1ccccc1	inconclusive: -45.9%
COc1ccc(-c2cc(C(F)(F)F)nc(SCCC(=O)Nc3c(C)cccc3C)n2)cc1	inactive: -27%
CNC(=O)COc1ccc(Nc2nnc(-c3ccc(C)c(S(=O)(=O)NC(C)(C)C)c3)c3ccccc23)cc1	inconclusive: -43.5%
O=C(Cn1cnc2scc(-c3ccccc3)c2c1=O)NCc1ccco1	inconclusive: -49.8%
O=C(CN1C(=O)NC2(CCCC2)C1=O)N1CCN(c2ccc(C(F)(F)F)cc2[N+](=O)[O-])CC1	inconclusive: -53.1%
CCN(CCCNC(=O)c1cc2cc3ccc(OC)cc3nc2s1)c1ccccc1	active: -77.5%
N#Cc1cccc(-n2c(-c3ccccc3)nnc2-c2ccccc2)c1C#N	inactive: -34.9%
CCOc1cc(CNCc2ccccc2)ccc1OCc1ccc(Cl)cc1	active: -84.5%
COc1ccc(Cl)cc1NC(=S)Nc1cccc(C)c1	inconclusive: -50.5%
Cc1cccc(CNC(=O)c2ccc(Cn3c(=O)c4cccn4c4cccnc43)cc2)c1	inconclusive: -42.8%
COc1ccccc1C(CNC(=O)c1oc2ccccc2c1C)N1CCCC1 (stereo not given)	inconclusive: -45.7%
COc1cc(Nc2ccccn2)cc(C(=O)Nc2cccc(C(F)(F)F)c2)c1	inconclusive: -49% and active: -68.5%
